# According to the supplement of paper PMC6119338:
# ± gives the standard deviation of the averaged measurements. The list shows a part of the results. Many values rest on one well or one pass, so single values are uncertain.
# Tested on: Plasmodium berghei sporozoites
# Experiment: residual sporozoite gliding motility relative to DMSO control; higher = less inhibition of motility
# Conditions: 10 µM; incubation time 30 min
row,SMILES,residual sporozoite gliding motility [%]
1,CCOC(=O)c1c(C)n(-c2ccc(Cl)cc2)c2ccc(OC(=O)C=Cc3ccccc3)cc12,> 50
2,O=C(Nc1ccccc1O)c1ccc(-c2ccc(Cl)cc2Cl)o1,> 50
3,Cc1ccc(S(=O)(=O)c2c(COC(=O)c3cccc(C)c3)c(-c3ccccc3)nn2C)cc1,> 50
4,COc1ccc(Br)cc1C1Nc2ccc3ccccc3c2C2=C1C(=O)CC(c1ccccc1)C2 (stereo unspecified),> 50
5,CC(C)(C)c1ccc(C2CC3=Nc4ccccc4N(C(=O)c4ccccc4Cl)C(c4ccc(F)cc4)C3=C(O)C2)cc1 (stereo unspecified),> 50
6,Cc1ccc(-c2cc(C(=O)Nc3ccc(S(=O)(=O)N4CCCCC4)cc3)[nH]n2)c(O)c1,> 50
7,N=c1n(CCN2CCCCC2)c2ccccc2n1CC(=O)c1ccc(Cl)c(Cl)c1,> 50
8,CCN(CC)S(=O)(=O)c1ccc(-c2csc(Nc3ccc(C)c(C)c3)n2)cc1,> 50
9,O=C(NC1CCCCC1)C(c1cccs1)N(CCc1ccccc1)C(=O)c1ccco1 (stereo unspecified),> 50
10,CCn1c(SCC(=O)Nc2cc(C(F)(F)F)ccc2Cl)nc2ccccc2c1=O,> 50
11,Cn1c(=O)c2cc(C(=O)NCCCN3CCCCCC3)sc2c2ccccc21,> 50
12,Cc1cc(C)cc(Nc2cc(C)nc3nc(C(F)(F)F)nn23)c1,> 50
13,CCCn1c(=N)c(C(=O)NC2CCCCC2)cc2c(=O)n3cccc(C)c3nc21,> 50
14,COc1cccc(C=Cc2nc(=O)c3ccccc3o2)c1OC,> 50
15,O=C(Nc1cccc(C(F)(F)F)c1)c1cc(Cl)ccc1O,27.7 ± 7.4
16,O=C1CC(O)(C(F)(F)C(F)(F)F)Oc2ccccc21 (stereo unspecified),> 50
17,COc1ccc(-c2nc(N3CCN(C(=O)C4CCCCC4)CC3)c3c4c(sc3n2)CCCC4)cc1,> 50
18,COc1cc2c3cc1Oc1c(OC)c(OC)cc4c1C(Cc1ccc(O)c(c1)Oc1ccc(cc1)CC3N(C)CC2)N(C)CC4 (stereo unspecified),> 50

row,SMILES,residual sporozoite gliding motility [%]
1,CN(C)CCCNc1c2ccccc2nc2ccccc12,> 50
2,CCOc1c(Br)cc(C2C(C(=O)OC)=CN(C)C=C2C(=O)OC)cc1OC,> 50
3,COc1ccccc1N1CCN(C(CNS(=O)(=O)c2ccc(Cl)cc2)c2cccnc2)CC1 (stereo unspecified),> 50
4,OC(CNCc1ccccc1)Cn1c2ccccc2c2ccccc21 (stereo unspecified),> 50
5,O=C(NCC(c1ccsc1)N1CCCCCC1)c1ccc(C(F)(F)F)cc1 (stereo unspecified),> 50
6,COc1cccc(O)c1CN1CCC2(CCCN(Cc3ccc(F)cc3)C2)C1 (stereo unspecified),> 50
7,Oc1c2c(nc3cc(-c4ccccc4)nn13)CCCC2,> 50
8,COc1ccc(-c2nc3cc(Cc4ccc5[nH]c(-c6ccc(OC)cc6)nc5c4)ccc3[nH]2)cc1,> 50
9,OC(CNCC1CCCO1)Cn1c2ccc(Cl)cc2c2cc(Cl)ccc21 (stereo unspecified),77.3 ± 17
10,CCOc1ccc2nc(C)cc(Nc3ccc(N(C)C)cc3)c2c1,> 50
11,CCN(CC)CCNc1ncnc2c1[nH]c1ccc(Cl)cc12,> 50
12,Cc1cc(N2CCN(C3CCCC3)CC2)n2c(nc3ccccc32)c1C#N,> 50
13,COc1ccc(C2N(C)c3ccccc3N2C)cc1,> 50
14,Cc1cc(Nc2ccc(Cl)cc2)n2nc(C(F)(F)F)nc2n1,> 50
15,CCOC(=O)C1CCN(C(=O)CN2C(=O)c3ccccc3C2c2c[nH]c3ccccc23)CC1 (stereo unspecified),> 50
16,COc1cccc(Nc2nc(N)c3ccccc3n2)c1,> 50
17,CCCCC(O)(c1ccc(Cl)cc1)C(CN1CCOCC1)c1ccc(Cl)cc1 (stereo unspecified),> 50
18,O=C(Nc1ccc(N2CCCCC2)c(Cl)c1)c1ccc(Br)o1,> 50

# Some of the entries so far, tab-delimited:
row	SMILES	residual sporozoite gliding motility [%]
7	N=c1n(CCN2CCCCC2)c2ccccc2n1CC(=O)c1ccc(Cl)c(Cl)c1	> 50
1	CN(C)CCCNc1c2ccccc2nc2ccccc12	> 50
